1 substance from paper PMC12329532 can be followed below.

Sequences of proteins named here, by UniProt entry; tags and fusion partners are left off.
UniProt P14902: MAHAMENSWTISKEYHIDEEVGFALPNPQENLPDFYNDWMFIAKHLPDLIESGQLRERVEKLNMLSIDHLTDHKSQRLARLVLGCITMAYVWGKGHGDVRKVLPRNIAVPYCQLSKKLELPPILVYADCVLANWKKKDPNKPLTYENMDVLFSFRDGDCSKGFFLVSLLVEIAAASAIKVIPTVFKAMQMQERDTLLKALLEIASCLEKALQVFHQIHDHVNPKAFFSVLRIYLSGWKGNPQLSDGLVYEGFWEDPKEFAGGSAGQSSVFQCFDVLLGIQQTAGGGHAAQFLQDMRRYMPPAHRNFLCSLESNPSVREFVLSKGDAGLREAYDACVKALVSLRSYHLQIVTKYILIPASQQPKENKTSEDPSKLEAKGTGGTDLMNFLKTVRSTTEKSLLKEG
UniProt P04406: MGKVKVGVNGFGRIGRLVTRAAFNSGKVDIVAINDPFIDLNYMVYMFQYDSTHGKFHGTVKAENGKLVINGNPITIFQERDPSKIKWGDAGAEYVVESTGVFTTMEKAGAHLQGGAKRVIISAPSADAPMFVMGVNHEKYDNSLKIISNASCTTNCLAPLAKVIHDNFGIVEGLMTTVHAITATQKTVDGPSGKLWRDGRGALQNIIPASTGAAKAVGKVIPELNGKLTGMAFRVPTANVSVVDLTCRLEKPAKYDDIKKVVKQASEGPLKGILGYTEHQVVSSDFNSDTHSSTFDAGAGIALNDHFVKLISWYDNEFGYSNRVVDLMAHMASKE

The test concerns the target FLAG-tagged wild type human IDO1 expressed in HEK293T cells (human) (UniProt P14902). As to the kind of experiment: co-IP; anti-FLAG IP of HEK293T cell supernatants (1 mg), protein G agarose, blot with anti-GAPDH; 50 mM Tris-HCl pH 7.4, 0.1% Triton X-100, 100 mM NaCl; in part of the experiments after siRNA knock-down of native GAPDH and rescue with HA-GAPDH.

Results are given in words; binding and its absence hold for the method and conditions named. In cells and extracts the contact can be indirect. Some entries that bind do so weakly or less than the wild type.

In the case of “GAPDH of HEK293T cells (native) (from UniProt P04406 1-335) (enzyme)”, the binding entry is recorded as “binds”.
